Measured values taken from patent US10153510B2, “Non-aqueous redox flow batteries including 3,7-perfluoroalkylated phenothiazine derivatives” (University of Kentucky Research Foundation, priority 2014, dated 2018).

Key:
[1] = Overcharge protection (redox shuttle) cycling; conditions: for Quantitative Measure of Overcharge Protection (Redox Shuttle) Performance: 100% overcharge, 0.08 M, testing in progress (FIGS. 10, 11)
[2] = Half-cell (coin cell vs lithium metal) cycling
[3] = 100% overcharge; BCF3EPT at ca. 3.8 V; data from refs 29, 30, 32; cited from earlier work

SMILES	Practical for Overcharge Protection? [1]	Quantitative Measure of Overcharge Protection (Redox Shuttle) Performance [3]	also measured
CCN1c2ccc(C#N)cc2Sc2cc(C#N)ccc21 [BCF3(4-CF3C6H4)PT]	Yes, because	–	Quantitative Measure of Overcharge Protection (Redox Shuttle) Performance [1]: >70 cycles at 100%
CCN1c2ccc(C(F)(F)C(F)(F)F)cc2Sc2cc(C(F)(F)C(F)(F)F)ccc21 [BCF3CF2EPT]	Yes, because	–	Quantitative Measure of Overcharge Protection (Redox Shuttle) Performance [1]: >10 cycles at 100%
CCN1c2ccc(C(F)(F)F)cc2Sc2cc(C(F)(F)F)ccc21 [BCF3EPT, 3,7-bis(trifluoromethyl)-N-ethylphenothiazine]	Yes, because	~250 cycles of	cycles with charge capacity unchanged ([2]; 0.25 M in 1.0 M LiBF4 in PC, coin cell vs Li, 3.5-4.2 V, 0.1 mA): more than 250 cycles; coulombic efficiency ([2]; coin cell, 250 cycles): 80-90%; energy efficiency ([2]; coin cell, 250 cycles): 80-90%; voltage efficiency ([2]; coin cell, stabilized): ca. 97%; Quantitative Measure of Redox Flow Performance: coulombic efficiency ([2]; in half cells): date with >99%; Quantitative Measure of Redox Flow Performance: charge/discharge cycles completed ([2]; in half cells, to date): >250 cycles
CCN1c2ccc(Br)cc2Sc2cc(Br)ccc21 [DBrEPT]	No, it is	2-5 cycles	–
CCN1c2ccc(C#N)cc2Sc2cc(C#N)ccc21 [DCNEPT]	No, they are	0-1 cycles	–
CCN1c2ccc(Cl)cc2Sc2cc(Cl)ccc21 [DClEPT]	practical; also recorded: Yes, because	19-37 cycles	–
CCN1c2ccc([N+](=O)[O-])cc2Sc2cc([N+](=O)[O-])ccc21 [DNO2EPT]	No, they are	0 cycles	–
CCN1c2ccccc2Sc2ccccc21 [EPT]	practical; also recorded: Yes, because	65-160 cycles	–
CN1c2ccccc2Sc2ccccc21 [MPT]	No, although	5 cycles	–
c1ccc2c(c1)Nc1ccccc1S2 [PT]	No, because	2-3 cycles	–

Entries after “also recorded” stand apart in the source; their conditions may differ. Where two headings read alike, the source gives them in different places.
